Test results from PubChem BioAssay AID493014 (National Center for Advancing Translational Sciences (NCATS), 2011).
Some of the results follow. Shown are side measurements of this screen, not its main read-out; they come without a call. Most of these compounds were active or inconclusive in the main read-out, so they are no random draw. Potencies come from curve fits of mixed quality, noted in brackets.

Assay: qHTS Assay to Find Inhibitors of Chronic Active B-Cell Receptor Signaling
Settings: ABC-DLBCL IkBa-CBG/CBR reporter, luminescence ratio (green luciferase fused to IkBa over red control in TMD8 lymphoma cells), 4 h
Summary of the method: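 Doxycycline induced both beetle luciferases in TMD8 lymphoma cells; IKK-driven degradation limits the IkappaBalpha-fused green signal, while red luminescence normalises for cell number and nonspecific effects. Compounds tested up to 46 uM, 4 hrs.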

[1] = measured here: CBR red luminescence, cell number
[2] = measured here: IkBa-CBG green luminescence

Structure (SMILES)	AC50 [1]	AC50 [2]
COCCNC(=O)Cc1c(C)c2c(cc(C)c3c(C)coc32)oc1=O	3.98 µM [rising, partial curve, poor fit]	–
Cn1c(=O)n(Cc2ccccc2Cl)c2ccccc21	7.94 µM [rising, partial curve, poor fit]	10 µM [falling, partial curve, poor fit]
COc1ccc(C(CNC(=O)c2ccc(C)c(S(=O)(=O)Nc3ccccc3OC)c2)N2CCCC2)cc1 (stereo unspecified)	8.91 µM [falling, partial curve]	–
Cc1cc(O)c(C(C)C)cc1NC1=NS(=O)(=O)c2ccccc21	0.58 µM [falling, partial curve, poor fit]	–
Cn1c(N)c(C(=O)COC(=O)CN2C(=O)c3ccccc3C2=O)c(=O)n(C)c1=O	3.66 µM [falling, partial curve, poor fit]	–
Oc1ccc(Cl)cc1C=Nc1ccc(Br)cc1	0.282 µM [falling, full curve]	–
COc1ccc(CNC(=O)C(c2ccc(C)o2)N(Cc2cccs2)C(=O)Cc2cccs2)cc1 (stereo unspecified)	16.4 µM [falling, partial curve]	–
COc1ccc(CCc2nnc(CCC(=O)NCc3cc(C(C)C)no3)o2)cc1	35.5 µM [rising, single point]	–
CCOC(=O)COn1c(=O)c(-c2ccco2)[n+]([O-])c2ccccc21	4.47 µM [falling, full curve, poor fit]	–
C(=N\n1cnnc1)/c1cccnc1	1.3 µM [rising, partial curve]	–
O=C(OCC(=O)N1CCC(Cc2ccccc2)CC1)c1ccccc1O	23.1 µM [falling, partial curve, poor fit]	–
Cc1ccc(S(=O)(=O)NCCc2ccc(S(N)(=O)=O)cc2)cc1	6.51 µM [falling, single point]	–
CCN1CCn2c3c(c4cc(C)ccc42)CCCC31 (stereo unspecified)	35.5 µM [rising, partial curve, poor fit]	–
O=C(CSc1nnc2n1CCCN2)c1ccccc1	25.1 µM [falling, single point]	–
Nc1nnc(SCC(=O)c2ccc3ccccc3c2)s1	0.0651 µM [rising, partial curve, poor fit]	–
CCC1CN(C(=O)NCc2cccc(OC)c2)c2cc(Cl)ccc2O1 (stereo unspecified)	35.5 µM [falling, single point]	–
c1ccc2c(c1)Cn1nc(Cc3nc4c(s3)CCCC4)nc1-2	15.8 µM [rising, partial curve]	–
COc1ccccc1CNC(=O)OCc1nccnc1C(=O)Nc1ccc(Br)cn1	2.51 µM [rising, full curve, poor fit]	–
COc1ccc(Cl)cc1-n1c(C)cc(C(=O)OCC(=O)N2CC(=O)Nc3ccccc32)c1C	20.6 µM [falling, single point]	–
COc1ccc(NC2=Nc3ccccc3CC2)cc1	16.4 µM [falling, partial curve]	–
O=C(Nc1ccccc1C(=O)O)c1cccc(S(=O)(=O)Nc2ccc(Br)cc2)c1	12.6 µM [rising, partial curve, poor fit]	–

Some of the entries so far, with bars between the fields.
Structure (SMILES) | AC50 [1] | AC50 [2]
COc1ccccc1CNC(=O)OCc1nccnc1C(=O)Nc1ccc(Br)cn1 | 2.51 µM [rising, full curve, poor fit] | –
COc1ccc(Cl)cc1-n1c(C)cc(C(=O)OCC(=O)N2CC(=O)Nc3ccccc32)c1C | 20.6 µM [falling, single point] | –
COc1ccc(NC2=Nc3ccccc3CC2)cc1 | 16.4 µM [falling, partial curve] | –
O=C(Nc1ccccc1C(=O)O)c1cccc(S(=O)(=O)Nc2ccc(Br)cc2)c1 | 12.6 µM [rising, partial curve, poor fit] | –

Next part

Structure (SMILES)	AC50 [1]	AC50 [2]
Cn1c2ccccc2c(=O)c2c(=O)n(Cc3ccco3)c(-c3ccc(Cl)cc3Cl)nc21	1.58 µM [falling, full curve]	–
CCOC(=O)C1CCN(C(=O)c2ccccc2NC(=O)c2ccc(Cl)cc2)CC1	4.11 µM [rising, full curve, poor fit]	–
Cc1ccc(C(NC(=O)C2CCCCC2)c2c(O)ccc3ccccc23)cc1 (stereo unspecified)	0.731 µM [rising, full curve, poor fit]	–
COc1cccc(CN(C)C(=O)CCc2nnc(-c3ccsc3)o2)c1	35.5 µM [falling, single point]	–
CCOc1ncccc1C(=O)OCc1ccc(C(=O)OC)cc1	16.4 µM [falling, single point]	–
CC(C)Cn1c(SCC(=O)NC(=O)NC2CCCC2)nc2ccccc21	35.5 µM [falling, single point]	–
O=C(NCc1nnc(SCC(=O)N2CCCC2)o1)c1ccccc1F	8.2 µM [rising, partial curve, poor fit]	–
CCOC(=O)C1(C)/C(=N/Nc2ccccc2OC)C(=O)C(=O)N1c1ccccc1 (stereo unspecified)	0.316 µM [falling, full curve, poor fit]	–
CCN(CC)CCCNC(=O)c1c(O)c2cc(F)cc3c2n(c1=O)C(C)CC3 (stereo unspecified)	10 µM [falling, partial curve, poor fit]	–
CCCC(=O)Nc1nc2ccc(NC(=O)c3c(F)c(F)c(OC)c(F)c3F)cc2s1	–	7.08 µM [falling, partial curve, poor fit]
O=C(c1ccccc1)c1cc([N+](=O)[O-])ccc1N1CCOCC1	20.6 µM [rising, single point]	16.4 µM [falling, single point]
CC(C)OC(=O)CSc1nc2cc3c(cc2cc1C#N)OCO3	0.411 µM [rising, full curve, poor fit]	–
COc1ccc(C(=O)/C=C/C(=O)N(Cc2ccc(F)cc2)C(C(=O)NC2CCCCC2)c2ccncc2)c(O)c1 (stereo unspecified)	18.4 µM [falling, partial curve]	–
O=C(Nc1ccccc1F)N1CCc2ccccc2C1	7.94 µM [falling, partial curve]	–
CCCCOc1ccc(C(=O)N/C(=C\c2ccc([N+](=O)[O-])cc2)C(=O)OCc2ccco2)cc1	32.6 µM [rising, single point]	–
Cc1[nH]c2c(Br)cccc2c1[C@H]1[C@@H](CC#N)C1(C)C	11.6 µM [falling, partial curve]	–
CCCNC(=O)CSCc1nc(-c2ccc(SC)cc2)oc1C	1 µM [rising, partial curve, poor fit]	–
Cn1cc([N+](=O)[O-])c(C(=O)N/N=C/c2cc3c(cc2Br)OCO3)n1	6.31 µM [rising, single point]	–
O=C(N1CCCC1)n1c(Cc2ccccc2)nc2ccccc21	0.58 µM [falling, full curve]	–
CC(=O)c1c(C)[nH]c(C(=O)OCC(=O)N2CCN(S(=O)(=O)c3ccc(C)cc3)CC2)c1C	0.291 µM [rising, full curve, poor fit]	–
O=C(NC1CCN(C(=O)N2c3ccccc3Sc3ccccc32)CC1)c1ccccc1Cl	35.5 µM [falling, single point]	–

Structure (SMILES)	AC50 [1]	AC50 [2]
C=CCO/N=C(/C)c1ccc(Oc2cnccn2)cc1	12.6 µM [rising, single point]	–
O=C1N(c2cccc3ccccc23)C(c2ccccc2)N2CCCN12 (stereo unspecified)	9.2 µM [falling, partial curve, poor fit]	–
COc1ccc(CCC(=O)Nc2cc3c4c(c2)CC(=O)N4CCC3)cc1	29.1 µM [rising, single point]	–
O=C(O)CN(c1ccc2c(c1)OCCO2)S(=O)(=O)c1ccccc1	0.116 µM [rising, full curve, poor fit]	–
O=C(Cc1ccc(Br)cc1)N/N=C/c1ccc(-c2cccc(C(=O)O)c2)o1	14.1 µM [falling, single point]	–
O=C(NN=C1CCCC1)c1ccc(O)cc1	0.282 µM [falling, full curve]	–
COc1ccc(/C=C/C2=NC(=C\N(C)C)/C(=O)O2)cc1	0.501 µM [rising, full curve, poor fit]	–
CO/N=C(/CNC(=O)c1ccc(Cl)cc1Cl)c1ccc(Cl)cc1	35.5 µM [falling, single point]	–
Cc1cc([N+](=O)[O-])cc2c1NC(=O)C2(O)N1CCOCC1 (stereo unspecified)	25.1 µM [rising, single point]	22.4 µM [falling, single point]
Cc1[nH]n(-c2ccc(Cl)c(Cl)c2)c(=O)c1CCO	35.5 µM [falling, single point]	–
COc1ccc(N2CCN(C(=O)CSc3nnc(-c4cccnc4)n3-c3ccccc3)CC2)cc1	29.1 µM [rising, single point]	–
O=C(COc1ccc(/C=C\[N+](=O)[O-])cc1)N1CCOCC1	3.55 µM [falling, full curve]	–
O=C(CC(c1ccccc1)c1cc(Br)ccc1O)N1CCCC1 (stereo unspecified)	15.8 µM [falling, single point]	–
CCOC(=O)C1=C(O)/C(=C/c2ccc(OCC(=O)O)c(OCC)c2)SC1=Nc1ccc(C)cc1	1.78 µM [rising, partial curve, poor fit]	–
O=C1CSC2=NCN(c3ccc4c(c3)OCO4)CN12	20.6 µM [rising, single point]	–
O=S(=O)(c1ccc(Br)s1)N1CCN(c2ccnc3cc(Cl)ccc23)CC1	–	17.8 µM [rising, partial curve, poor fit]
O=C(N/N=C/c1ccc(F)cc1)c1ccc(-n2cnnn2)cc1	18.4 µM [falling, single point]	–
COC(=O)c1c(NC(=O)C2Cc3ccccc3C(=O)O2)sc2c1CCCC2 (stereo unspecified)	1.46 µM [falling, full curve, poor fit]	–
Cc1ccc(OC(=S)Nc2ccc(O)cc2)cc1	9.2 µM [falling, partial curve, poor fit]	–
CCOc1cc(CNS(=O)(=O)c2ccc3c(c2)CC(=O)N3C)cc(OCC)c1OCC	31.6 µM [falling, partial curve, poor fit]	–
c1ccc2[nH]c(-c3cscn3)nc2c1	17.8 µM [falling, single point]	–
